Measured values: patent US20230055705A1, “SUBSTITUTED THIOPHENE CARBOXAMIDES AND DERIVATIVES THEREOF” (Bayer Aktiengesellschaft, priority 2019, published 2023)
Some entries share one result that the patent states for a list of compounds.

What was measured:
Alternaria alternata = Alternaria alternata in vitro cell test; assay type: cell-based; conditions: 20 ppm of active ingredient; 5 days incubation
Description: (§1) • Solvent: DMSO • Culture medium: 14.6 g anhydrous D-glucose (VWR), 7.1 g Mycological Peptone (Oxoid), 1.4 g granulated Yeast Extract (Merck), QSP 1 liter • Inoculum: spores suspension
(§2) Fungicides were solubilized in DMSO and the solution used to prepare the required range of concentrations. The final concentration of DMSO used in the assay was ≤[…]1%.
A spore suspension of A. alternata was prepared and diluted to the desired spore density.
(§3) Fungicides were evaluated for their ability to inhibit spore germination and mycelium growth in liquid culture assay. The compounds were added in the desired concentration to the culture medium with spores. After 5 days incubation, fungi-toxicity of compounds was determined by spectrometric measurement of mycelium growth. Inhibition of fungal growth was determined by comparing the absorbance values in wells containing the fungicides with the absorbance in control wells without fungicides.

[1] = test system: Colletotrichum lindemuthianum; test: Colletotrichum lindemuthianum in vitro cell test; assay type: cell-based; conditions: 20 ppm of active ingredient; 6 days incubation
Description: as §1, §2
A spore suspension of C. lindemuthianum was prepared and diluted to the desired spore density.
as §3, with “inhibit spores” for “inhibit spore”, “After 6” for “After 5”

[2] = test system: Xanthomonas campestris pv. campestris; test: Xanthomonas campestris pv. campestris in vitro cell test; assay type: cell-based; conditions: 20 ppm of active ingredient; 24 h incubation
Description: • Solvent: DMSO • Culture medium: LB broth medium (Luria Broth Miller) Sigma • Inoculum: bacteria suspension
Compounds were solubilized in DMSO and the solution used to prepare the required range of concentrations. The final concentration of DMSO used in the assay was ≤1%.
(§4) Inoculum was prepared from a pre-culture of bacteria grown in liquid medium and diluted to the desired optical density (OD).
(§5) Compounds were evaluated for their ability to inhibit bacteria growth in liquid culture assay. The compounds were added in the desired concentrations to culture medium containing the bacteria suspension. After 24 h of incubation, the efficacy of compounds was determined by spectrometric measurement of bacteria growth. Inhibition was determined by comparing the absorbance values in wells containing the compounds with the absorbance in control wells without active ingredients.

[3] = test system: Pseudomonas syringae pv. tomato; test: Pseudomonas syringae pv. tomato in vitro cell test; assay type: cell-based; conditions: 20 ppm of active ingredient; 24 h incubation
Description: Culture medium: LB broth medium (Luria Broth Miller) Sigma
Inoculum: bacteria suspension
Compounds were solubilized in DMSO and the solution used to prepare the required range of concentrations. The final concentration of DMSO used in the assay was 1%.
as §4, §5

[4] = test system: salicylate responsive promoter sequence of the PR1 (pathogenesis-related protein I) gene (AT2G14610); test: Induction of defense gene expression in Arabidopsis thaliana (PR1 promoter-GFP reporter plants); assay type: in vivo; conditions: 3rd day after spraying, mock treated leaves set as 1.00
Description: Arabidopsis thaliana reporter plants containing the coding sequence of a green fluorescent protein (GFP) linked to the salicylate responsive promoter sequence of the PR1 (pathogenesis-related protein I) gene (AT2G14610) were grown for five days and then sprayed with compounds. On the 3rd day after spraying, plant fluorescence was assessed with a MacroFluo instrument from Leica Microsystems (Wetzlar, Germany). Fluorescences were quantified with the Meta-Morph Microscopy Automation & Image Analysis Software (Molecular Devices, Sunnyvale, Calif., United States). Background fluorescence in mock treated leaves was set as 1.00.

CNC(=S)C1(NC(=O)c2sc(Cl)c(Cl)c2Cl)CC1 [I.114]
≤ 30%: efficacy (inhibition of fungal growth) (Alternaria alternata) | efficacy (inhibition of fungal growth) [1] | efficacy (inhibition of bacteria growth) [2] | efficacy (inhibition of bacteria growth) [3]

CONC(=O)C1(NC(=O)c2sc(Cl)c(Cl)c2Cl)CC1 [I.055]
≤ 30%: efficacy (inhibition of fungal growth) (Alternaria alternata) | efficacy (inhibition of fungal growth) [1] | efficacy (inhibition of bacteria growth) [2] | efficacy (inhibition of bacteria growth) [3]
above 2: relative fluorescence value ([4]; 300 ppm)

CONC(=O)CNC(=O)c1sc(Cl)c(Cl)c1Cl [I.054]
≤ 30%: efficacy (inhibition of fungal growth) (Alternaria alternata) | efficacy (inhibition of fungal growth) [1] | efficacy (inhibition of bacteria growth) [2] | efficacy (inhibition of bacteria growth) [3]

CCOC(=O)C(CC1CC1)NC(=O)c1sc(Cl)c(Cl)c1Cl (stereo not drawn) [I.058]
above 2: relative fluorescence value ([4]; 75 ppm of compound) | relative fluorescence value ([4]; 300 ppm)
≤ 30%: efficacy (inhibition of fungal growth) (Alternaria alternata) | efficacy (inhibition of fungal growth) [1] | efficacy (inhibition of bacteria growth) [2] | efficacy (inhibition of bacteria growth) [3]

O=C(NC1CCCCNC1=O)c1sc(Cl)c(Cl)c1Cl (stereo not drawn) [I.125]
≤ 30%: efficacy (inhibition of fungal growth) [1] | efficacy (inhibition of bacteria growth) [2] | efficacy (inhibition of bacteria growth) [3]
above 2: relative fluorescence value ([4]; 300 ppm)

N#CCNC(=O)C1(NC(=O)c2sc(Cl)c(Cl)c2Cl)CC1 [I.053]
≤ 30%: efficacy (inhibition of fungal growth) (Alternaria alternata) | efficacy (inhibition of fungal growth) [1] | efficacy (inhibition of bacteria growth) [2] | efficacy (inhibition of bacteria growth) [3]

NC(=O)C1(NC(=O)c2sc(Cl)c(Cl)c2Cl)CC1 [I.060]
≤ 30%: efficacy (inhibition of fungal growth) (Alternaria alternata) | efficacy (inhibition of fungal growth) [1] | efficacy (inhibition of bacteria growth) [2] | efficacy (inhibition of bacteria growth) [3]

O=C(CNC(=O)c1sc(Cl)c(Cl)c1Cl)NO [I.148]
≤ 30%: efficacy (inhibition of fungal growth) (Alternaria alternata) | efficacy (inhibition of fungal growth) [1] | efficacy (inhibition of bacteria growth) [3]
above 2: relative fluorescence value ([4]; 75 ppm of compound) | relative fluorescence value ([4]; 300 ppm)

O=C1CC(NC(=O)c2sc(Cl)c(Cl)c2Cl)CCN1 (stereo not drawn) [I.030]
≤ 30%: efficacy (inhibition of fungal growth) (Alternaria alternata) | efficacy (inhibition of fungal growth) [1] | efficacy (inhibition of bacteria growth) [2] | efficacy (inhibition of bacteria growth) [3]

CCOC(=O)C1(C2(NC(=O)c3sc(Cl)c(Cl)c3Cl)CC2)CC1 [I.047]
≤ 30%: efficacy (inhibition of fungal growth) (Alternaria alternata) | efficacy (inhibition of fungal growth) [1] | efficacy (inhibition of bacteria growth) [2] | efficacy (inhibition of bacteria growth) [3]

CN(CC#N)C(=O)CNC(=O)c1sc(Cl)c(Cl)c1Cl [I.063]
≤ 30%: efficacy (inhibition of fungal growth) (Alternaria alternata) | efficacy (inhibition of fungal growth) [1] | efficacy (inhibition of bacteria growth) [2] | efficacy (inhibition of bacteria growth) [3]

COC(=O)CC1(NC(=O)c2sc(Cl)c(Cl)c2Cl)CC1 [I.044]
≤ 30%: efficacy (inhibition of fungal growth) (Alternaria alternata) | efficacy (inhibition of fungal growth) [1] | efficacy (inhibition of bacteria growth) [2] | efficacy (inhibition of bacteria growth) [3]

CC(C)OC(=O)C1(C2(NC(=O)c3sc(Cl)c(Cl)c3Cl)CC2)CC1 [I.027]
≤ 30%: efficacy (inhibition of fungal growth) (Alternaria alternata) | efficacy (inhibition of fungal growth) [1] | efficacy (inhibition of bacteria growth) [2] | efficacy (inhibition of bacteria growth) [3]

COC(=O)[C@@H](CC(N)=O)NC(=O)c1sc(Cl)c(Cl)c1Cl [I.014]
≤ 30%: efficacy (inhibition of fungal growth) (Alternaria alternata) | efficacy (inhibition of fungal growth) [1] | efficacy (inhibition of bacteria growth) [2] | efficacy (inhibition of bacteria growth) [3]

CN(C)C(=S)CNC(=O)c1sc(Cl)c(Cl)c1Cl [I.129]
above 2: relative fluorescence value ([4]; 300 ppm)
≤ 30%: efficacy (inhibition of fungal growth) [1] | efficacy (inhibition of bacteria growth) [2] | efficacy (inhibition of bacteria growth) [3]

CC(C)(C)OC(=O)CNC(=O)CNC(=O)c1sc(Cl)c(Cl)c1Cl [I.149]
≤ 30%: efficacy (inhibition of fungal growth) (Alternaria alternata) | efficacy (inhibition of fungal growth) [1] | efficacy (inhibition of bacteria growth) [2] | efficacy (inhibition of bacteria growth) [3]

NC(=O)CCC(NC(=O)c1sc(Cl)c(Cl)c1Cl)C(=O)O (stereo not drawn) [I.002]
≤ 30%: efficacy (inhibition of fungal growth) (Alternaria alternata) | efficacy (inhibition of fungal growth) [1] | efficacy (inhibition of bacteria growth) [2] | efficacy (inhibition of bacteria growth) [3]

CON(C)C(=O)CNC(=O)c1sc(Cl)c(Cl)c1Cl [I.061]
≤ 30%: efficacy (inhibition of fungal growth) [1] | efficacy (inhibition of bacteria growth) [2] | efficacy (inhibition of bacteria growth) [3]

COC(=O)C(CCSC)NC(=O)c1sc(Cl)c(Cl)c1Cl (stereo not drawn) [I.067]
≤ 30%: efficacy (inhibition of fungal growth) (Alternaria alternata) | efficacy (inhibition of fungal growth) [1] | efficacy (inhibition of bacteria growth) [2] | efficacy (inhibition of bacteria growth) [3]

CCOC(=O)C1(NC(=O)c2sc(Cl)c(Cl)c2Cl)CN(C(=O)OC(C)(C)C)C1 [I.057]
above 2: relative fluorescence value ([4]; 300 ppm)
≤ 30%: efficacy (inhibition of fungal growth) [1] | efficacy (inhibition of bacteria growth) [2] | efficacy (inhibition of bacteria growth) [3]

CCNC(=O)SC[C@H](NC(=O)c1sc(Cl)c(Cl)c1Cl)C(=O)OC [I.141]
above 2: relative fluorescence value ([4]; 75 ppm of compound) | relative fluorescence value ([4]; 300 ppm)
≤ 30%: efficacy (inhibition of fungal growth) [1] | efficacy (inhibition of bacteria growth) [2] | efficacy (inhibition of bacteria growth) [3]

COC(=O)[C@H](CCSC)NC(=O)c1sc(Cl)c(Cl)c1Cl [I.069]
≤ 30%: efficacy (inhibition of fungal growth) (Alternaria alternata) | efficacy (inhibition of fungal growth) [1] | efficacy (inhibition of bacteria growth) [2] | efficacy (inhibition of bacteria growth) [3]

O=C(NC(Cc1c[nH]c2ccccc12)C(=O)O)c1sc(Cl)c(Cl)c1Cl (stereo not drawn) [I.003]
above 2: relative fluorescence value ([4]; 75 ppm of compound) | relative fluorescence value ([4]; 300 ppm)
≤ 30%: efficacy (inhibition of fungal growth) [1] | efficacy (inhibition of bacteria growth) [2] | efficacy (inhibition of bacteria growth) [3]

O=C1CC(NC(=O)c2sc(Cl)c(Cl)c2Cl)CN1 (stereo not drawn) [I.028]
≤ 30%: efficacy (inhibition of fungal growth) (Alternaria alternata) | efficacy (inhibition of fungal growth) [1] | efficacy (inhibition of bacteria growth) [2] | efficacy (inhibition of bacteria growth) [3]

COC(=O)CC(C)NC(=O)c1sc(Cl)c(Cl)c1Cl (stereo not drawn) [I.135]
≤ 30%: efficacy (inhibition of fungal growth) [1] | efficacy (inhibition of bacteria growth) [2] | efficacy (inhibition of bacteria growth) [3]

CON(C)C(=O)C1(NC(=O)c2sc(Cl)c(Cl)c2Cl)CC1 [I.049]
≤ 30%: efficacy (inhibition of fungal growth) (Alternaria alternata) | efficacy (inhibition of fungal growth) [1] | efficacy (inhibition of bacteria growth) [2] | efficacy (inhibition of bacteria growth) [3]

COC(=O)C(C)(Cc1ccccc1)NC(=O)c1sc(Cl)c(Cl)c1Cl (stereo not drawn) [I.122]
≤ 30%: efficacy (inhibition of fungal growth) (Alternaria alternata) | efficacy (inhibition of fungal growth) [1] | efficacy (inhibition of bacteria growth) [2] | efficacy (inhibition of bacteria growth) [3]

COC(=O)C(NC(=O)c1sc(Cl)c(Cl)c1Cl)(C1CC1)C1CC1 [I.005]
≤ 30%: efficacy (inhibition of fungal growth) (Alternaria alternata) | efficacy (inhibition of fungal growth) [1] | efficacy (inhibition of bacteria growth) [2] | efficacy (inhibition of bacteria growth) [3]

O=C(NC1CCNC1=O)c1sc(Cl)c(Cl)c1Cl (stereo not drawn) [I.004]
≤ 30%: efficacy (inhibition of fungal growth) (Alternaria alternata) | efficacy (inhibition of fungal growth) [1] | efficacy (inhibition of bacteria growth) [2] | efficacy (inhibition of bacteria growth) [3]

O=C(O)C1(NC(=S)c2sc(Cl)c(Cl)c2Cl)CC1 [I.010]
≤ 30%: efficacy (inhibition of fungal growth) (Alternaria alternata) | efficacy (inhibition of fungal growth) [1] | efficacy (inhibition of bacteria growth) [2] | efficacy (inhibition of bacteria growth) [3]

O=C(NC1CCSC1=O)c1sc(Cl)c(Cl)c1Cl (stereo not drawn) [I.023]
above 2: relative fluorescence value ([4]; 75 ppm of compound) | relative fluorescence value ([4]; 300 ppm)
≤ 30%: efficacy (inhibition of fungal growth) (Alternaria alternata) | efficacy (inhibition of bacteria growth) [2] | efficacy (inhibition of bacteria growth) [3]
